## Library screen at single concentrations

The chains behind the UniProt entries cited, without tags or fusion partners. Residues count along the entry.
UniProt P9WFT3, whole entry: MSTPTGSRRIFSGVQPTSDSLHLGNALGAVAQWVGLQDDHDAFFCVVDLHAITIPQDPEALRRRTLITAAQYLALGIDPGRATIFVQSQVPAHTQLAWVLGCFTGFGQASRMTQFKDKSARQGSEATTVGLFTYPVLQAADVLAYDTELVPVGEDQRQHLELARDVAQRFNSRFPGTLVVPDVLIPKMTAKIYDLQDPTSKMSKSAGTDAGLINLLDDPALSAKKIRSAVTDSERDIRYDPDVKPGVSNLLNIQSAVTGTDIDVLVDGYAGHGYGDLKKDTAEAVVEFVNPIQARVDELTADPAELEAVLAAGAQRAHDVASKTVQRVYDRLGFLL
UniProt I6X8D2, whole entry: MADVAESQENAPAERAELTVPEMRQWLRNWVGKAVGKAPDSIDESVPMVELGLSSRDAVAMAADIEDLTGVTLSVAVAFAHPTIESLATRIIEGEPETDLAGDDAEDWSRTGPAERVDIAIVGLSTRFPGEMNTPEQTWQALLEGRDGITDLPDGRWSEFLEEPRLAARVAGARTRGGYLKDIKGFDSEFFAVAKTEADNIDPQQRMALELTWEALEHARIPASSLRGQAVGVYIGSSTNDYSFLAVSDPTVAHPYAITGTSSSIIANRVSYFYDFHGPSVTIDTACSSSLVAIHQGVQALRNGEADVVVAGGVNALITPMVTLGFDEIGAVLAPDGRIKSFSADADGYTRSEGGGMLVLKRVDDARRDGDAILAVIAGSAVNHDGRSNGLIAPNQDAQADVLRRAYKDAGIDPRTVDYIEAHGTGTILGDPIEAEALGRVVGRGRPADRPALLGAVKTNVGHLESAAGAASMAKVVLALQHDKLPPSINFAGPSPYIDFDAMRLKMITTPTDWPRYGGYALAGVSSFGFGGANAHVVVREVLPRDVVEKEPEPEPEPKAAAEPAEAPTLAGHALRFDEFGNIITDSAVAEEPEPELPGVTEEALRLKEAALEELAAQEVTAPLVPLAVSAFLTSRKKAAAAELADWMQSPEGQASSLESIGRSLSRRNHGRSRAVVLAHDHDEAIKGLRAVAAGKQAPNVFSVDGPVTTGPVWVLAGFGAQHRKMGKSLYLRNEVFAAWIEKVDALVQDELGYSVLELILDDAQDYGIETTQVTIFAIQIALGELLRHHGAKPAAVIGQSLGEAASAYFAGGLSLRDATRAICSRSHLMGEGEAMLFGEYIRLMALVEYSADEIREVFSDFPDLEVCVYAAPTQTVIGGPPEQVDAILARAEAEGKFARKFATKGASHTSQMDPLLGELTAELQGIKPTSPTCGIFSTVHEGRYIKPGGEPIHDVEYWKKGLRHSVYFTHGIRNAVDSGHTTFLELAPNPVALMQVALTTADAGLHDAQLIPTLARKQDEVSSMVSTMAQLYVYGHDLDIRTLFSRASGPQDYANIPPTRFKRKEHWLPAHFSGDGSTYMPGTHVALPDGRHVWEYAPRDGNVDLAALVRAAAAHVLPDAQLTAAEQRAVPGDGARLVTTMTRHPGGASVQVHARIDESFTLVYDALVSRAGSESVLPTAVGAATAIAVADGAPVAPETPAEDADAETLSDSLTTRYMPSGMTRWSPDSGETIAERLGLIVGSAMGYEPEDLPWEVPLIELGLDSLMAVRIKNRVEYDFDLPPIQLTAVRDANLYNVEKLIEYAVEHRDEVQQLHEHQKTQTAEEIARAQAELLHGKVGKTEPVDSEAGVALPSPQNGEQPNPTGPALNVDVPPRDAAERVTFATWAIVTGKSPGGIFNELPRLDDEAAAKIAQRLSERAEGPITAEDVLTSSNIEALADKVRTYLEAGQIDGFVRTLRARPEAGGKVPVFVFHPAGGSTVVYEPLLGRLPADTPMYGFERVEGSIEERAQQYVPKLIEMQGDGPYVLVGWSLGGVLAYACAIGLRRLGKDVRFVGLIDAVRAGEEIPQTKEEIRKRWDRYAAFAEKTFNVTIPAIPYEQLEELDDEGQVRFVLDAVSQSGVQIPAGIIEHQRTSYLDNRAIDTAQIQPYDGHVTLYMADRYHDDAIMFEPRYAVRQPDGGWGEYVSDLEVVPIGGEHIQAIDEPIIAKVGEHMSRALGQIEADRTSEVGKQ
UniProt Q4DA54, 1-478: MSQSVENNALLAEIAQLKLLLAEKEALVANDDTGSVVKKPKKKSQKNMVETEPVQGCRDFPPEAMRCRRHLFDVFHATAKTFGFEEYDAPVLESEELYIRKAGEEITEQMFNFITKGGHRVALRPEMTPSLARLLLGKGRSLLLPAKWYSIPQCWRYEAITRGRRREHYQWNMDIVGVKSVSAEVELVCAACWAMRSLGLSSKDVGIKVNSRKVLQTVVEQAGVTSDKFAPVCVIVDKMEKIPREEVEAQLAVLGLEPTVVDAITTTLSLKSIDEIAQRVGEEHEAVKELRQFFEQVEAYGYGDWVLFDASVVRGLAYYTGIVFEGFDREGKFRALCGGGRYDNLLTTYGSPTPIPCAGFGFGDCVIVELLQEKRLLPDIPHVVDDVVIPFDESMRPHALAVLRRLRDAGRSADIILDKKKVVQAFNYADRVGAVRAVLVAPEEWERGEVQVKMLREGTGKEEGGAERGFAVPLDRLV

Source: ChEMBL document CHEMBL3988442, “University of Dundee, Small-Polar-MMV Screening Library” (2021).

MtTrpRS: 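Enzyme assay of tryptophanyl-tRNA synthetase; the read-out is not stated. Target: Tryptophan-tRNA ligase, Mycobacterium tuberculosis (UniProt P9WFT3). Tested at 10 µM. Direction is not recorded; retested compounds ran higher, which suggests that high means inhibition. Size under these conditions: about 65,000 compounds, about 64 of them at 50% or above in at least one test.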
Leishmania in macrophages: 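Cell assay of Leishmania donovani living inside macrophages; the read-out is not stated. Compounds at 30 µM. Direction is inferred from retests: higher values go with stronger inhibition. About 69,000 compounds were tested under these conditions; 1.5% (about 1,000) showed 50% or more at least once.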
Pks13 thioesterase: 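Enzyme assay of the thioesterase domain of polyketide synthase 13; the read-out is not stated. Target: Polyketide synthase Pks13, Mycobacterium tuberculosis (UniProt I6X8D2). Compounds at 30 µM. Higher reads as stronger inhibition (inferred from which compounds were picked for retests). About 67,000 compounds were tested under these conditions; 0.46% (about 300) showed 50% or more at least once.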
TcHisRS: 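Enzyme assay of histidyl-tRNA synthetase; the read-out is not stated. Target: Histidine-tRNA ligase, Trypanosoma cruzi CL Brener (UniProt Q4DA54). Tested at 30 µM. Higher reads as stronger inhibition (inferred: compounds with an IC50 in retests scored well above the rest). About 69,000 compounds were tested under these conditions; 0.045% (about 31) showed 50% or more at least once.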

Results are given as percent effect. The record does not define 0% and 100%; most values in the screen are far below 50% and negative numbers occur (in some assays of this library far below -100). Compounds were drawn at random from those tested, without regard to their results. Two or more numbers in one place are separate tests of the same structure; such repeats can differ widely. A dash means the value is not listed here; it may have been measured.

structure	MtTrpRS	Leishmania in macrophages	Pks13 thioesterase	TcHisRS
CC(C)(C)OC(=O)N1CCC(C(=O)NCCNc2ncccn2)CC1	-5.951	10.4	1.114	3.488
Cc1ccc(C(=O)N2CCc3ncnc(C)c3CC2)cc1F	6.789	-15.74	12.76	4.478
Cn1nc(-c2ccc(Cl)cc2)c(Br)c1C(=O)O	-17.72	22.16	-14.72	-8.772
C[C@H](C(=O)N1Cc2ccccc2CC2(CCCN2C)C1)c1ccccc1 (some centres undefined)	-0.4322	33.53	-4.205	11.24
O=C(Nc1ccc(CC(=O)N2CCSCC2)cc1)NC1CCCC1	-4.769	-9.117	-0.3393	6.557
Cc1ccc(C)c(OCCNC(=O)[C@@H]2CCCCN2)c1	-0.09311	-17.03	-24.93	11.8
O=C(O)C(F)(F)F.O=c1ccc2c([nH]1)CCC(NCc1ccc(F)cc1)C2 (centres undefined)	-	-8	-	-
COc1ccc(CNCCc2cc(F)cc3c2OCOC3)cc1O	-1.137	-12.74	-5.299	6.504
CO[C@H]1CN(Cc2cc(F)ccc2F)CC[C@@]12CCCO2	-	0.1756 and 8.773	9.627	9.89
Cc1cccc(OC(C)C(=O)NCC2(N(C)C)CCCC2)c1 (centres undefined)	-0.8704	10.94	-35.47	-4.891
CCN(CC)Cc1ccc(C(=O)N2CCCC2c2cnn(C)c2)o1 (centres undefined)	31.04	8.16	-30.39	2.286
O=C(NCC(F)(F)F)c1ccc(-n2cccn2)nn1	0.08937	2.616	-5.293	4.762
CCCc1noc(CN2CCC(NC(=O)c3ccc(C)s3)CC2)n1	1.356	19.28	-15.26	-0.4484
O=C1CCSCC(C(=O)NCc2nc(-c3ccccc3)no2)N1 (centres undefined)	2.376	25.97	-0.5246	9.135
COc1ccc(C(=O)NC2CC2)c(OC2CCN(C(C)CO)CC2)c1 (centres undefined)	-6.063	-21.14	-12.54	5.587
O=C(c1ccc2[nH]ccc2c1)N1Cc2nc(CN3CCCCC3)oc2C1	-2.75	-	-12.37	29.41
CCOc1ccc(C(=O)NCc2ccnc(N3CCCC3)c2)cn1	0.7009	26.69	-	-0.4926
O=C(C1COCCO1)N1CCN(CC(F)(F)F)c2ccccc21 (centres undefined)	3.331	56.8	3.169	10.05
CCC(CC)CN1CCN(CC(=O)Nc2ccc3nsnc3c2)CC1	-1.537	3.869	0.1668	0.5181
CC(C)(O)c1cn(C2CCN(C(=O)CCC(F)(F)F)CC2)nn1	-3.473	-0.08157	-26.96	-8.696
CCc1c(C)nc2cc(C3CCN(Cc4ccc(F)cc4)C3)nn2c1O (centres undefined)	-	-17.66	-1.001	13.83
Cc1nc2c(NC(CC(C)(C)C)c3cccnc3)ncnc2o1 (centres undefined)	-1.158	33.8	12.38	2.899
CC(C)(C)CN[C@@H]1CO[C@H](CNC(=O)c2ccncc2)[C@H]1O	-0.5339	-2.016	7.457	3.483
COc1ncc(CN2CCCC(c3[nH]ncc3S(C)(=O)=O)C2)cn1 (centres undefined)	-	12.47 and 20.8	-9.632	9.89
O=C(NCCC1Cc2ccccc2C1)N1CCCC(O)C1 (centres undefined)	-1.568	12.76	5.578	5.882
c1cnn(Cc2nnc3n2CCCN(Cc2ccsc2)C3)c1	0.7538	-	5.889	0.8
CSCCc1n[nH]c2c1CN(S(=O)(=O)c1c(C)nn(C)c1C)CC2	2.519	-0.401	-8.451	8.163
Cc1oc(NC(=O)C(C)N2CCN(CCO)CC2)c(C#N)c1C (centres undefined)	-1.201	24.76	-13.16	-2.222
COCCC1(CNC(=O)NCC2CCCN(C)C2)CCCC1 (centres undefined)	-5.909	-16.34	-5.481	0.5236
CC(C)(C)c1nc(CN(Cc2cccs2)CC2CCCO2)no1 (centres undefined)	-4.345	-1.306	1.446	5.634
CCN(CCO)C[C@@H]1CN(C(=O)c2sc3ccccc3c2C)C[C@@H]1CO	-6.757	-0.1561	10.06	0.8772
CN(C)C(=O)CO[C@H]1CN(Cc2cccc(C#N)c2)[C@@H]2COC[C@H]12	-0.4882	-	6.716	4.902
COc1ccccc1OCCNCc1c(C)nn(C)c1N(C)C.Cl	-	16.17	-	-
CC(=O)NCc1ccc(S(=O)(=O)NC(=O)c2ccc3c(c2)CCO3)s1	2.252	6.143	-7.469	6.186
COCC(=O)N1CCC(c2cc(C(F)(F)F)n3ccnc3n2)CC1	0.25	15.46	61.45	4.301
O=C(O)CC1COCCN1C(=O)C1(c2ccc(Cl)cc2)CCC1 (centres undefined)	-2.918	-6.787	-20.5	3.415
CC(C)CNC(=O)CN1CCCC(c2ccc(C(=O)O)cc2)C1 (centres undefined)	3.163	12.28	-24.07	-0.4484
Cc1cc(CNC(=O)N2CCN(Cc3ccccc3)C[C@H]2C)on1	-4.909	21.55	-5.557	10.97
CCN1CCN(C(=O)C2CCOC2)c2ccccc21 (centres undefined)	4.542	8.08	-13.05	6.03
CCCOC(=O)N1CCc2cccc(S(=O)(=O)N3CCOCC3)c2C1	-2.102	18.09	-4.051	2.632
COCCc1noc(CN2CCN(CC(O)c3ccccc3)CC2)n1 (centres undefined)	-1.852	22.33	-3.406	2.632
Cc1nc(CN2CC(=O)N(C)c3ccccc3C2=O)no1	-1.729	-19.34	-21.31	1.064
O=C(NC1CC1)[C@H]1C[C@H]2OCC[C@H]2N(Cc2ccc(F)cc2)C1	-5.855	-	-21.17	1.493
COC(=O)c1ccc(N2CCN(C(=O)CC(F)(F)F)C(C)C2)cc1 (centres undefined)	-0.4566	-68.18	24.13	8.861

The last 6 entries again:

- CCN1CCN(C(=O)C2CCOC2)c2ccccc21 (centres undefined) | MtTrpRS: 4.542%; Leishmania in macrophages: 8.08%; Pks13 thioesterase: -13.05%; TcHisRS: 6.03%
- CCCOC(=O)N1CCc2cccc(S(=O)(=O)N3CCOCC3)c2C1 | MtTrpRS: -2.102%; Leishmania in macrophages: 18.09%; Pks13 thioesterase: -4.051%; TcHisRS: 2.632%
- COCCc1noc(CN2CCN(CC(O)c3ccccc3)CC2)n1 (centres undefined) | MtTrpRS: -1.852%; Leishmania in macrophages: 22.33%; Pks13 thioesterase: -3.406%; TcHisRS: 2.632%
- Cc1nc(CN2CC(=O)N(C)c3ccccc3C2=O)no1 | MtTrpRS: -1.729%; Leishmania in macrophages: -19.34%; Pks13 thioesterase: -21.31%; TcHisRS: 1.064%
- O=C(NC1CC1)[C@H]1C[C@H]2OCC[C@H]2N(Cc2ccc(F)cc2)C1 | MtTrpRS: -5.855%; Pks13 thioesterase: -21.17%; TcHisRS: 1.493%
- COC(=O)c1ccc(N2CCN(C(=O)CC(F)(F)F)C(C)C2)cc1 (centres undefined) | MtTrpRS: -0.4566%; Leishmania in macrophages: -68.18%; Pks13 thioesterase: 24.13%; TcHisRS: 8.861%